Data set [1] in a line: Total gas production in the anaerobic biodegradation method (pressure transducer). Conditions: Duration 275 days.
A short description of data set [2]: Closed-bottle anaerobic biodegradation test, EPA Method 1647 (275 days). Conditions: Pass/Fail. On the procedure:
Anaerobic biodegradation testing. […] For each substance, four samples were run. Each test was compared to separate standard samples containing ethyl oleate, squalane, 1-hexadecene, C16-18 internal olefin, or no additive. To pass the test, the sample must have more net biodegradation than the C16-18 internal olefin. The testing procedure was as follows: • 1. Each test mixture was prepared by combining with 2000 mg carbon (sample) per kg of natural sediment; 30 grams of the mixture were used for each sample run. The carbon content of the sample was measured before mixing the sample with the sediment. […] After a bottle was capped, a nitrogen sparge was employed to remove air in the headspace of the bottle before incubation was started. • 3. During the incubation period, the sample is kept at a constant temperature of 29±1° C. • 4. […] Each sample was brought to ambient temperature to make each measurement. Gas production was measured with a pressure gauge, and barometric pressure was also measured at the time of measurement to make volume corrections.

Our source for the Total gas production and Result values is patent publication US20260193531A1, “LIQUID WEIGHTING AGENTS FOR OIL-BASED FLUIDS” (Albemarle Corporation, priority 2022, published 2026).

`C=CCCCCCCCCCCCCCC` [1-hexadecene]: the Total gas production in data set [1] stood at 82.35 mL. As to `CCCCCC(=O)OCC(CBr)(CBr)COC(=O)CCCCC` [2,2-bis(bromomethyl)1,3-propanediol-1,3-dihexanoate], the Result result in data set [2] (Duration 275 days) is reported as “Fail”. As to `CC(C)C(=O)OCC(Br)=CBr` [2,3-dibromoallyl 2-methylpropanoate], in data set [2] (Duration 67 days), the Result entry is recorded as “Fail”. The same measure, in the same setting: then `CC(C)C(=O)OC/C(Br)=C(\Br)COC(=O)C(C)C` [(2E)-2,3-dibromobut-2-ene-1,4-diyl bis(2-methylpropanoate)], with “Fail”. Take `CCC(=O)OC/C(Br)=C(\Br)COC(=O)CC` [(2E)-2,3-dibromobut-2-ene-1,4-diyl bis(propanoate)]: the Result entry in data set [2] (Duration 275 days) is listed as “Pass”. Same read-out and setting: as for `O=C(CBr)OC/C=C\COC(=O)CBr` [(2Z)-but-2-ene-1,4-diyl bis(bromoacetate)], the entry is “Fail”; as for `CCCC(=O)OCc1cc(Br)cc(Br)c1` [(3,5-dibromophenyl)methyl butyrate], “Fail”; as for `CCCCC(=O)OCc1cc(Br)cc(Br)c1` [(3,5-dibromophenyl)methyl pentanoate], “Fail”. Turning to `CCCCCCCC/C=C\CCCCCCCC(=O)OCC` [ethyl oleate], in data set [1], the Total gas production is recorded as 126.03 mL. Turning to `O=C(CBr)OCC(COC(=O)CBr)OC(=O)CBr` [propane-1,2,3-triyl tris(bromoacetate)], the Result result in data set [2] (Duration 275 days) is given as “Fail”. For `CC(C)CCCC(C)CCCC(C)CCCCC(C)CCCC(C)CCCC(C)C` (centres unmarked) [squalane], the Total gas production in data set [1] came out at 24.97 mL. For the compound `CC(C)C(=O)OCC(CBr)(CBr)CBr` [tribromoneopentyl 2-methylpropanoate, 3-bromo-2,2-bis(bromomethyl)propyl 2-methylpropanoate], in data set [2] (Duration 150 days), the Result entry is given as “Fail”.

Take `CCCCCC(=O)OCC(CBr)(CBr)CBr` [tribromoneopentyl hexanoate, 3-bromo-2,2-bis(bromomethyl)propyl hexanoate]: in data set [2] (Duration 67 days), the Result entry is on record as “Fail”. On to `CCCCC(=O)OCC(CBr)(CBr)CBr` [tribromoneopentyl valerate, 3-bromo-2,2-bis(bromomethyl)propyl pentanoate], for which the Result entry in data set [2] (Duration 150 days) was “Fail”.
